Source: the supplement of paper PMC8728848
The other results are listed elsewhere or left out.

What was measured:
Assay in all cases: glycan array binding signal (z-score within array); higher = stronger binding
Conditions in all cases: glycan notation: IUPAC condensed, linker removed
[1] = target: Fuc(a1-2)[GalNAc(b1-3)]Gal
In short: (§1)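 Negative Z-scores can be read as non-binding. The Z-score is calculated within each array and then averaged across arrays of one protein sequence at different concentrations or buffers and across linkers. Arrays, 3228 in all, were curated from the Consortium for Functional Glycomics database and kept only where the protein sequence was available.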

[2] = target: Fuc(a1-3)GlcNAc
In short: as §1

[3] = target: Fuc(a1-3)[Gal(b1-4)]Glc6S
In short: as §1

[4] = target: Fuc(a1-3)[Gal(b1-4)]GlcNAc
In short: as §1

[5] = target: Fuc(a1-3)[Gal(b1-4)]GlcNAc(b1-2)Man
In short: as §1

[6] = target: Fuc(a1-3)[Gal(b1-4)]GlcNAc(b1-2)Man(a1-3)[Fuc(a1-3)[Gal(b1-4)]GlcNAc(b1-2)Man(a1-6)]Man(b1-4)GlcNAc(b1-4)GlcNAc
In short: as §1

[7] = target: Fuc(a1-3)[Gal(b1-4)]GlcNAc(b1-2)Man(a1-3)[Fuc(a1-3)[Gal(b1-4)]GlcNAc(b1-2)Man(a1-6)]Man(b1-4)GlcNAc(b1-4)[Fuc(a1-6)]GlcNAc
In short: as §1

[8] = target: Fuc(a1-3)[Gal(b1-4)]GlcNAc(b1-3)Gal(b1-3)[Fuc(a1-4)]GlcNAc
In short: as §1

[9] = target: Fuc(a1-3)[Gal(b1-4)]GlcNAc(b1-3)Gal(b1-4)[Fuc(a1-3)]GlcNAc
In short: as §1

[10] = target: Fuc(a1-3)[Gal(b1-4)]GlcNAc(b1-3)Gal(b1-4)[Fuc(a1-3)]GlcNAc(b1-3)Gal(b1-4)[Fuc(a1-3)]GlcNAc
In short: as §1

[11] = target: Fuc(a1-3)[Gal(b1-4)]GlcNAc(b1-3)GalNAc
In short: as §1

[12] = target: Fuc(a1-3)[Gal(b1-4)]GlcNAc(b1-6)GalNAc
In short: as §1

[13] = target: Fuc(a1-3)[Gal(b1-4)]GlcNAc(b1-6)[Gal(b1-3)GlcNAc(b1-3)]Gal(b1-4)Glc
In short: as §1

[14] = target: Fuc(a1-3)[Gal(b1-4)]GlcNAc6S
In short: as §1

[15] = target: Fuc(a1-3)[Gal3S(b1-4)]Glc
In short: as §1

[16] = target: Fuc(a1-3)[Gal3S(b1-4)]GlcNAc
In short: as §1

[17] = target: Fuc(a1-3)[Gal3S(b1-4)]GlcNAc6S
In short: as §1

[18] = target: Fuc(a1-3)[GalNAc(b1-4)]GlcNAc
In short: as §1

[19] = target: Fuc(a1-3)[GalNAc(b1-4)]GlcNAc6S
In short: as §1

[20] = target: Fuc(a1-4)GlcNAc
In short: as §1

[21] = target: Fuc(b1-3)GlcNAc
In short: as §1

[22] = target: Gal(a1-2)Gal
In short: as §1

[23] = target: Gal(a1-3)Gal
In short: as §1

[24] = target: Gal(a1-3)Gal(b1-3)GlcNAc
In short: as §1

[25] = target: Gal(a1-3)Gal(b1-3)GlcNAc(b1-2)Man
In short: as §1

[26] = target: Gal(a1-3)Gal(b1-3)GlcNAc(b1-2)Man(a1-3)[Gal(a1-3)Gal(b1-3)GlcNAc(b1-2)Man(a1-6)]Man(b1-4)GlcNAc(b1-4)GlcNAc
In short: as §1

[27] = target: Gal(a1-3)Gal(b1-3)GlcNAc(b1-3)GalNAc
In short: as §1

[28] = target: Gal(a1-3)Gal(b1-3)GlcNAc(b1-6)GalNAc
In short: as §1

[29] = target: Gal(a1-3)Gal(b1-3)[Fuc(a1-4)]GlcNAc(b1-2)Man(a1-3)[Gal(a1-3)Gal(b1-3)[Fuc(a1-4)]GlcNAc(b1-2)Man(a1-6)]Man(b1-4)GlcNAc(b1-4)GlcNAc
In short: as §1

[30] = target: Gal(a1-3)Gal(b1-4)Glc
In short: as §1

B1: MtEccB1 (Mycobacterium tuberculosis H37Rv), O69734 (protein)
chain: MGLRLTTKVQVSGWRFLLRRLEHAIVRRDTRMFDDPLQFYSRSIALGIVVAVLILAGAALLAYFKPQGKLGGTSLFTDRATNQLYVLLSGQLHPVYNLTSARLVLGNPANPATVKSSELSKLPMGQTVGIPGAPYATPVSAGSTSIWTLCDTVARADSTSPVVQTAVIAMPLEIDASIDPLQSHEAVLVSYQGETWIVTTKGRHAIDLTDRALTSSMGIPVTARPTPISEGMFNALPDMGPWQLPPIPAAGAPNSLGLPDDLVIGSVFQIHTDKGPQYYVVLPDGIAQVNATTAAALRATQAHGLVAPPAMVPSLVVRIAERVYPSPLPDEPLKIVSRPQDPALCWSWQRSAGDQSPQSTVLSGRHLPISPSAMNMGIKQIHGTATVYLDGGKFVALQSPDPRYTESMYYIDPQGVRYGVPNAETAKSLGLSSPQNAPWEIVRLLVDGPVLSKDAALLEHDTLPADPSPRKVPAGASGAP
glycan array binding signal (z-score) [1]: 0.559
glycan array binding signal (z-score) [2]: -1.29
glycan array binding signal (z-score) [3]: 0.72
glycan array binding signal (z-score) [4]: -0.159
glycan array binding signal (z-score) [5]: -0.707
glycan array binding signal (z-score) [6]: 0.033
glycan array binding signal (z-score) [7]: 0.521
glycan array binding signal (z-score) [8]: -0.803
glycan array binding signal (z-score) [9]: -0.952
glycan array binding signal (z-score) [10]: 0.114
glycan array binding signal (z-score) [11]: -0.801
glycan array binding signal (z-score) [12]: -1.29
glycan array binding signal (z-score) [13]: 0.407
glycan array binding signal (z-score) [14]: -0.14
glycan array binding signal (z-score) [15]: 0.293
glycan array binding signal (z-score) [16]: 0.468
glycan array binding signal (z-score) [17]: 0.357
glycan array binding signal (z-score) [18]: 1.32
glycan array binding signal (z-score) [19]: -0.813
glycan array binding signal (z-score) [20]: -0.306
glycan array binding signal (z-score) [21]: 1.33
glycan array binding signal (z-score) [22]: -0.95
glycan array binding signal (z-score) [23]: -1.38
glycan array binding signal (z-score) [24]: 1.88
glycan array binding signal (z-score) [25]: 0.787
glycan array binding signal (z-score) [26]: 0.301
glycan array binding signal (z-score) [27]: -0.836
glycan array binding signal (z-score) [28]: -0.407
glycan array binding signal (z-score) [29]: 2.23
glycan array binding signal (z-score) [30]: 0.359
